According to patent US20230346901A1, “METHODS AND VACCINE COMPOSITIONS TO TREAT CANCERS” (priority 2019, published 2023):
Part of at least one peptide drawing is inferred or uncertain, most often the ends. Ends that are not written are not given here.

Test system: APL blasts (human PML-RARA oncogene) engrafted in FVB/N mice
Experiment: Direct peptide treatment in preclinical APL-transplantable mouse model (survival)
Assay type: in vivo

RQIKIWFQNRRMKWKKAKLNAEKLKDFKIRLQYFARGLQVYIRQLRLALQGKT [RT53]
survival of APL mice compared to control mice (2.4 mg/kg i.p. daily for 7 days starting day 10 after engraftment, P<0.0001): significantly extended survival | survival of APL mice (2.4 mg/kg i.p. daily from day 20, seven doses (D20 schedule), fully established leukemia): prolonged the survival of leukemic mice | survival of APL mice compared to ATRA-treated mice (RT53 2.4 mg/kg i.p. from day 10, 7 doses, vs ATRA 5 mg 21-day release pellets at day 6): superior to that of mice treated by ATRA
